Reference: the supplement of paper PMC4604168 (melanoma cell lines)
The other results are listed elsewhere or left out. Single values are uncertain, as repeats are few or missing.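 The apoptosis fraction was the count of cleaved-PARP antibody-stained nuclei relative to all DNA-stained nuclei, imaged in 1,536-well plates. Screening doses were set so most cells survived, and baseline and induced cleaved-PARP levels vary greatly across cell lines.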

Key:
Assay in all cases: cleaved PARP positive nuclei fraction relative to DMSO control; melanoma cells; higher = more apoptosis
Settings in all cases: library dose: low library concentration; 72 h
MZ2-MEL = test system: MZ2-MEL
MeWo = test system: MeWo
RPMI7951 = test system: RPMI7951
RVH-421 = test system: RVH-421
SkMel28 = test system: SkMel28
SkMel30 = test system: SkMel30
SkMel5 = test system: SkMel5
UACC257 = test system: UACC257
UACC62 = test system: UACC62

SMILES | cleaved PARP positive nuclei fraction (MZ2-MEL) [%] | cleaved PARP positive nuclei fraction (MeWo) [%] | cleaved PARP positive nuclei fraction (RPMI7951) [%] | cleaved PARP positive nuclei fraction (RVH-421) [%] | cleaved PARP positive nuclei fraction (SkMel28) [%] | cleaved PARP positive nuclei fraction (SkMel30) [%] | cleaved PARP positive nuclei fraction (SkMel5) [%] | cleaved PARP positive nuclei fraction (UACC257) [%] | cleaved PARP positive nuclei fraction (UACC62) [%]
Cc1cc(N2CCOCC2)cc2[nH]c(-c3c(NC[C@@H](O)c4cccc(Cl)c4)cc[nH]c3=O)nc12 + O=S(=O)(c1ccccc1)N(CC(F)(F)F)c1ccc(C(O)(C(F)(F)F)C(F)(F)F)cc1 [T0901317] (first compound 0.2 µM, partner dose 1.4 µM) | 26.1 | 54.5 | 76.2 | 43.9 | 120 | 34.5 | 92 | 154 | 102
Cc1cc(N2CCOCC2)cc2[nH]c(-c3c(NC[C@@H](O)c4cccc(Cl)c4)cc[nH]c3=O)nc12 + COC(=O)c1sccc1S(=O)(=O)Nc1ccc(Nc2ccccc2)cc1OC [GSK0660] (first compound 0.2 µM, partner dose 1 µM) | 146 | 52.7 | 40.9 | 53.6 | 84.9 | 75.7 | 102 | 92 | 95
Cn1cncc1[C@@](N)(c1ccc(Cl)cc1)c1ccc2c(c1)c(-c1cccc(Cl)c1)cc(=O)n2C [tipifarnib] + Oc1nc(-c2ccc(C(F)(F)F)cc2)nc2c1CSCC2 [XAV939] (first compound 0.01 µM, partner dose 2 µM) | 118 | 53.9 | 75.4 | 27.7 | 138 | 14.3 | 132 | 127 | 45.2
Cc1nc(Nc2ncc(C(=O)Nc3c(C)cccc3Cl)s2)cc(N2CCN(CCO)CC2)n1 [dasatanib] + N#Cc1c(O)c2c(-c3ccc(-c4ccccc4O)cc3)csc2[nH]c1=O [A769662] (first compound 0.004 µM, partner dose 2 µM) | 111 | 36.3 | 120 | 117 | 202 | 57.3 | 60.9 | 179 | 39.2
O=C(CCCCCCC(=O)Nc1ccccc1)NO [vorinostat] + COC(=O)c1sccc1S(=O)(=O)Nc1ccc(Nc2ccccc2)cc1OC [GSK0660] (first compound 0.08 µM, partner dose 1 µM) | 59.5 | 201 | 91.3 | 72.9 | 189 | 25.5 | 80.9 | 32.8 | 88.2
Cc1cc(N2CCOCC2)cc2[nH]c(-c3c(NC[C@@H](O)c4cccc(Cl)c4)cc[nH]c3=O)nc12 + O=C1NC(=O)/C(=C/c2ccc(-c3ccc(F)cc3O)o2)S1 [AS252424] (first compound 0.2 µM, partner dose 1 µM) | 136 | 47.8 | 81.4 | 55.2 | 111 | 25 | 57.3 | 109 | 47.6
C[C@]1(c2nc3c(C(N)=O)cccc3[nH]2)CCCN1 [Veliparib] + Oc1nc(-c2ccc(C(F)(F)F)cc2)nc2c1CSCC2 [XAV939] (first compound 1.4 µM, partner dose 2 µM) | 102 | 142 | 118 | 81.1 | 151 | 160 | 94.8 | 140 | 99.8
C[C@@H]1CCN(C(=O)CC#N)C[C@@H]1N(C)c1ncnc2[nH]ccc12 + Oc1cc(-c2nc(-c3ccccc3)[nH]c2-c2ccncc2)ccc1Cl [L779450] (first compound 1 µM, partner dose 0.2 µM) | 27.7 | 56.5 | 153 | 131 | 129 | 30.2 | 77.5 | 76 | 413
C[C@@H]1CCN(C(=O)CC#N)C[C@@H]1N(C)c1ncnc2[nH]ccc12 + O=c1cc(-c2cccc3c2Sc2ccccc2S3)oc(N2CCOCC2)c1 [KU55933] (first compound 1 µM, partner dose 1 µM) | 148 | 51.7 | 77.7 | 70 | 77.5 | 23.1 | 27.1 | 57.3 | 78.4
COCC[n+]1c2c(n(Cc3cnccn3)c1C)C(=O)c1ccccc1C2=O + CCN(CC)CCCCNc1ncc2cc(-c3cc(OC)cc(OC)c3)c(NC(=O)NC(C)(C)C)nc2n1 [PD173074] (first compound 0.0004 µM, partner dose 0.1 µM) | 144 | 123 | 55.3 | 53.6 | 85.8 | 23.4 | 118 | 59.2 | 40.4
Cc1ccc(NC(=O)c2cccc(N(C)C)c2)cc1NC(=O)c1ccc(O)cc1 + Cn1cc(/C=C2\C(=O)Nc3cccnc32)c2ccccc21 [GW441756] (first compound 2 µM, partner dose 0.4 µM) | 40.6 | 50.8 | 48.5 | 118 | 132 | 68.2 | 134 | 104 | 71.9
C=CCn1c(=O)c2cnc(Nc3ccc(N4CCN(C)CC4)cc3)nc2n1-c1cccc(C(C)(C)O)n1 + CC(C)CCN1c2nc(Nc3cc(F)c(O)c(F)c3)ncc2N(C)C(=O)C1C [BID1870] (first compound 0.02 µM, partner dose 0.2 µM) | 150 | 234 | 40.4 | 76.2 | 256 | 40.6 | 229 | 83.1 | 397
CO[C@@H]1[C@H](N(C)C(=O)c2ccccc2)C[C@H]2O[C@]1(C)n1c3ccccc3c3c4c(c5c6ccccc6n2c5c31)C(=O)NC4 [Midostaurin] + Cc1cc([N+](=O)[O-])ccc1NS(=O)(=O)c1cc(Cl)ccc1Cl [FH535] (first compound 0.08 µM, partner dose 1 µM) | 123 | 33.3 | 50.5 | 137 | 181 | 59.8 | 73.5 | 81.5 | 111
CO[C@@H]1[C@H](N(C)C(=O)c2ccccc2)C[C@H]2O[C@]1(C)n1c3ccccc3c3c4c(c5c6ccccc6n2c5c31)C(=O)NC4 [Midostaurin] + O=c1cc(-c2cccc3c2Sc2ccccc2S3)oc(N2CCOCC2)c1 [KU55933] (first compound 0.08 µM, partner dose 1 µM) | 157 | 234 | 207 | 185 | 61.7 | 91.1 | 62.6 | 44.6 | 42.1
O=C(CCCCCCC(=O)Nc1ccccc1)NO [vorinostat] + Cn1cc(/C=C2\C(=O)Nc3cccnc32)c2ccccc21 [GW441756] (first compound 0.08 µM, partner dose 0.4 µM) | 51.4 | 51.4 | 86.3 | 38.2 | 273 | 19.8 | 64.7 | 70.2 | 40.8
NC(=O)Nc1cc(-c2cccc(F)c2)sc1C(=O)N[C@H]1CCCNC1 + CC(C)CCN1c2nc(Nc3cc(F)c(O)c(F)c3)ncc2N(C)C(=O)C1C [BID1870] (first compound 0.02 µM, partner dose 0.2 µM) | 82.5 | 54 | 45.1 | 59.9 | 133 | 51.4 | 145 | 90.9 | 60.1
Cn1c(Nc2ccc(C(F)(F)F)cc2)nc2cc(Oc3ccnc(-c4ncc(C(F)(F)F)[nH]4)c3)ccc21 + CCN(CC)CCCCNc1ncc2cc(-c3cc(OC)cc(OC)c3)c(NC(=O)NC(C)(C)C)nc2n1 [PD173074] (first compound 0.08 µM, partner dose 0.1 µM) | 110 | 79.4 | 59.7 | 57.4 | 239 | 44.4 | 58.6 | 314 | 53.7
CC1(C)NC(=O)N(c2ccc([N+](=O)[O-])c(C(F)(F)F)c2)C1=O [nilutamide] + COc1ccc(COc2ccc(Cc3cnc(N)nc3N)cc2OC)cc1 [GW2580] (first compound 1 µM, partner dose 1 µM) | 86.1 | 50.6 | 87.1 | 75.6 | 273 | 48.5 | 113 | 79.3 | 68.3
Cn1c(Nc2ccc(C(F)(F)F)cc2)nc2cc(Oc3ccnc(-c4ncc(C(F)(F)F)[nH]4)c3)ccc21 + COc1cc(N2CCC(N3CCN(C)CC3)CC2)ccc1Nc1ncc(Cl)c(Nc2ccccc2S(=O)(=O)C(C)C)n1 [NVP-TAE684] (first compound 0.08 µM, partner dose 0.08 µM) | 54.2 | 140 | 213 | 177 | 142 | 102 | 39.1 | 462 | 151
CC1(C)NC(=O)N(c2ccc([N+](=O)[O-])c(C(F)(F)F)c2)C1=O [nilutamide] + COc1cc2ncnc(Nc3ccc(Oc4ccccc4)cc3)c2cc1OC [SrcI1] (first compound 1 µM, partner dose 2 µM) | 30.8 | 44.3 | 220 | 62.7 | 170 | 326 | 49.5 | 96.8 | 89.9
O=C(Nc1cccc(Cl)c1)Nc1ncc(CCNc2ncnc3ccsc23)s1 + O=C1NC(=O)/C(=C/c2ccc(-c3ccc(F)cc3O)o2)S1 [AS252424] (first compound 0.0008 µM, partner dose 1 µM) | 99.7 | 156 | 323 | 79.1 | 125 | 18.9 | 53 | 186 | 76.5
C=CCn1c(=O)c2cnc(Nc3ccc(N4CCN(C)CC4)cc3)nc2n1-c1cccc(C(C)(C)O)n1 + Cn1cc(/C=C2\C(=O)Nc3cccnc32)c2ccccc21 [GW441756] (first compound 0.02 µM, partner dose 0.4 µM) | 105 | 55 | 90.5 | 85.3 | 94.5 | 24 | 47.9 | 116 | 138
COCC[n+]1c2c(n(Cc3cnccn3)c1C)C(=O)c1ccccc1C2=O + COc1ccc2c(c1)CCC1C2CCC2(C)C(NCCCCCCN3C(=O)C=CC3=O)CCC12 [U73122] (first compound 0.0004 µM, partner dose 0.4 µM) | 111 | 51.9 | 93.5 | 56.4 | 110 | 66.5 | 86.3 | 313 | 66.8
C#Cc1cccc(Nc2ncnc3cc(OCCOC)c(OCCOC)cc23)c1 [erlotinib] + CCN(CC)CCCCNc1ncc2cc(-c3cc(OC)cc(OC)c3)c(NC(=O)NC(C)(C)C)nc2n1 [PD173074] (first compound 0.8 µM, partner dose 0.1 µM) | 46.2 | 112 | 251 | 75.1 | 57.7 | 86.1 | 37.7 | 118 | 73.3

A portion of the results above, for reference:
SMILES | cleaved PARP positive nuclei fraction (MZ2-MEL) [%] | cleaved PARP positive nuclei fraction (MeWo) [%] | cleaved PARP positive nuclei fraction (RPMI7951) [%] | cleaved PARP positive nuclei fraction (RVH-421) [%] | cleaved PARP positive nuclei fraction (SkMel28) [%] | cleaved PARP positive nuclei fraction (SkMel30) [%] | cleaved PARP positive nuclei fraction (SkMel5) [%] | cleaved PARP positive nuclei fraction (UACC257) [%] | cleaved PARP positive nuclei fraction (UACC62) [%]
CO[C@@H]1[C@H](N(C)C(=O)c2ccccc2)C[C@H]2O[C@]1(C)n1c3ccccc3c3c4c(c5c6ccccc6n2c5c31)C(=O)NC4 [Midostaurin] + O=c1cc(-c2cccc3c2Sc2ccccc2S3)oc(N2CCOCC2)c1 [KU55933] (first compound 0.08 µM, partner dose 1 µM) | 157 | 234 | 207 | 185 | 61.7 | 91.1 | 62.6 | 44.6 | 42.1
O=C(CCCCCCC(=O)Nc1ccccc1)NO [vorinostat] + Cn1cc(/C=C2\C(=O)Nc3cccnc32)c2ccccc21 [GW441756] (first compound 0.08 µM, partner dose 0.4 µM) | 51.4 | 51.4 | 86.3 | 38.2 | 273 | 19.8 | 64.7 | 70.2 | 40.8
